# Laboratory results: the supplement of paper PMC8728848
# The other results are listed elsewhere or left out.
# B1: Mnn9-2N3 (Aspergillus fumigatus) (protein)
# chain: MAVARRMRRTNPITLLLAAILAIGFFIFVLSPSTTSASPVKAGSASSSSTSQQRREDNAAENPLSPPTKPFFKSQPVRHDGQQAPPPVVQYNLNQLSSTSTSAANGERILILTPMARFVPEYWDNVVKLTYPHELISIGFIIPKNKEGNAALAALEAAIAKTQSGPIDKRFASISILRQDFEPPLQSQDEKERHKISNQKARRESMSRARNSLLFTTLGPATAWVLWLDADIVETPPTLIQDLTAHDHPVLVPNCYQRYYNSEKKKMDVRPYDYNSWIDSSTAQSMAAEMGPDEILLEGYAEMPTYRTLMAHLADTANPNPKKVIELDGVGGTALMVKAEVHRDGAMFPAFPFYHLVETEGFAKMAKRLGYSVYGLPDYFVSRNFFFFFFFFFFG
# Legend:
# Experiment in all cases: glycan array binding signal (z-score within array); higher = stronger binding
# Details in all cases: glycan notation: IUPAC condensed, linker removed
# Gal6S(b1-4)Glc6S = target: Gal6S(b1-4)Glc6S
# How it was run: (§1)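 The binding signal is a Z-score computed within each array. Data were drawn from 3228 arrays in the Consortium for Functional Glycomics database, restricted to those with a known protein sequence. Scores were averaged over arrays of the same protein sequence at different concentrations or buffers, and over linkers, and negative values can be taken as non-binding.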
# Gal6S(b1-4)GlcNAc = target: Gal6S(b1-4)GlcNAc
# How it was run: as §1
# Gal6S(b1-4)GlcNAc6S = target: Gal6S(b1-4)GlcNAc6S
# How it was run: as §1
# GalNAc(a1-3)Gal = target: GalNAc(a1-3)Gal
# How it was run: as §1
# GalNAc(a1-3)GalNAc = target: GalNAc(a1-3)GalNAc
# How it was run: as §1
# [1] = target: GalNAc(a1-3)GalNAc(b1-3)Gal(a1-4)Gal(b1-4)Glc
# How it was run: as §1
# [2] = target: GalNAc(a1-3)GalNAc(b1-3)Gal(a1-4)Gal(b1-4)GlcNAc
# How it was run: as §1
# GalNAc(b1-3)Gal = target: GalNAc(b1-3)Gal
# How it was run: as §1
# [3] = target: GalNAc(b1-3)Gal(a1-4)Gal(b1-4)GlcNAc
# How it was run: as §1
# [4] = target: GalNAc(b1-3)Gal(a1-4)Gal(b1-4)GlcNAc(b1-3)Gal(b1-4)Glc
# How it was run: as §1
# [5] = target: GalNAc(b1-3)Gal(a1-6)Gal(b1-4)Glc
# How it was run: as §1
# GalNAc(b1-3)GalNAc = target: GalNAc(b1-3)GalNAc
# How it was run: as §1
# GalNAc(b1-3)GlcNAc = target: GalNAc(b1-3)GlcNAc
# How it was run: as §1
# GalNAc(b1-4)Gal(b1-4)Glc = target: GalNAc(b1-4)Gal(b1-4)Glc
# How it was run: as §1
# GalNAc(b1-4)GlcNAc = target: GalNAc(b1-4)GlcNAc
# How it was run: as §1
# [6] = target: GalNAc(b1-4)GlcNAc(b1-2)Man
# How it was run: as §1
# [7] = target: GalNAc(b1-4)GlcNAc(b1-2)Man(a1-3)[GalNAc(b1-4)GlcNAc(b1-2)Man(a1-6)]Man(b1-4)GlcNAc(b1-4)GlcNAc
# How it was run: as §1
# [8] = target: GalNAc(b1-4)GlcNAc(b1-3)GalNAc(b1-4)GlcNAc
# How it was run: as §1
# GalNAc(b1-4)GlcNAc6S = target: GalNAc(b1-4)GlcNAc6S
# How it was run: as §1
# GalNAc(b1-6)GalNAc = target: GalNAc(b1-6)GalNAc
# How it was run: as §1
# GalNAc3S(b1-4)GlcNAc = target: GalNAc3S(b1-4)GlcNAc
# How it was run: as §1
# GalNAc3S(b1-4)GlcNAc3S = target: GalNAc3S(b1-4)GlcNAc3S
# How it was run: as §1
# [9] = target: GalNAc3S(b1-4)[Fuc(a1-3)]GlcNAc
# How it was run: as §1
# GalNAc4S6S(b1-4)GlcNAc = target: GalNAc4S6S(b1-4)GlcNAc
# How it was run: as §1
# GalNAc6S(b1-4)GlcNAc = target: GalNAc6S(b1-4)GlcNAc
# How it was run: as §1
# Glc(a1-4)Glc = target: Glc(a1-4)Glc
# How it was run: as §1
# [10] = target: Glc(a1-4)Glc(a1-4)Glc(a1-4)Glc
# How it was run: as §1
# Glc(a1-6)Glc(a1-6)Glc = target: Glc(a1-6)Glc(a1-6)Glc
# How it was run: as §1
# [11] = target: Glc(a1-6)Glc(a1-6)Glc(a1-6)Glc
# How it was run: as §1
# Glc(b1-4)Glc = target: Glc(b1-4)Glc
# How it was run: as §1
# Glc(b1-6)Glc = target: Glc(b1-6)Glc
# How it was run: as §1
# GlcA(b1-3)Gal = target: GlcA(b1-3)Gal
# How it was run: as §1
# GlcA(b1-3)GlcNAc = target: GlcA(b1-3)GlcNAc
# How it was run: as §1
# GlcA(b1-6)Gal = target: GlcA(b1-6)Gal
# How it was run: as §1
# [12] = target: GlcA3S(b1-3)Gal(b1-4)GlcNAc(b1-2)Man
# How it was run: as §1
# [13] = target: GlcA3S(b1-3)Gal(b1-4)GlcNAc(b1-3)Gal(b1-4)Glc
# How it was run: as §1
# [14] = target: GlcNAc(a1-3)Gal(b1-4)GlcNAc
# How it was run: as §1
binder,measurement,setting,value
B1,glycan array binding signal (z-score),Gal6S(b1-4)Glc6S,-0.727
same,glycan array binding signal (z-score),Gal6S(b1-4)GlcNAc,-0.571
same,glycan array binding signal (z-score),Gal6S(b1-4)GlcNAc6S,-0.866
same,glycan array binding signal (z-score),GalNAc(a1-3)Gal,-0.223
same,glycan array binding signal (z-score),GalNAc(a1-3)GalNAc,-0.042
same,glycan array binding signal (z-score),[1],-0.332
same,glycan array binding signal (z-score),[2],-0.709
same,glycan array binding signal (z-score),GalNAc(b1-3)Gal,-1.8
same,glycan array binding signal (z-score),[3],0.061
same,glycan array binding signal (z-score),[4],-2.29
same,glycan array binding signal (z-score),[5],1.29
same,glycan array binding signal (z-score),GalNAc(b1-3)GalNAc,-1.41
same,glycan array binding signal (z-score),GalNAc(b1-3)GlcNAc,0.09
same,glycan array binding signal (z-score),GalNAc(b1-4)Gal(b1-4)Glc,-0.651
same,glycan array binding signal (z-score),GalNAc(b1-4)GlcNAc,-0.366
same,glycan array binding signal (z-score),[6],-0.117
same,glycan array binding signal (z-score),[7],-0.507
same,glycan array binding signal (z-score),[8],-0.285
same,glycan array binding signal (z-score),GalNAc(b1-4)GlcNAc6S,-0.484
same,glycan array binding signal (z-score),GalNAc(b1-6)GalNAc,-0.275
same,glycan array binding signal (z-score),GalNAc3S(b1-4)GlcNAc,-0.505
same,glycan array binding signal (z-score),GalNAc3S(b1-4)GlcNAc3S,-0.856
same,glycan array binding signal (z-score),[9],-0.385
same,glycan array binding signal (z-score),GalNAc4S6S(b1-4)GlcNAc,-0.839
same,glycan array binding signal (z-score),GalNAc6S(b1-4)GlcNAc,-0.802
same,glycan array binding signal (z-score),Glc(a1-4)Glc,0.556
same,glycan array binding signal (z-score),[10],-2.33
same,glycan array binding signal (z-score),Glc(a1-6)Glc(a1-6)Glc,1.82
same,glycan array binding signal (z-score),[11],-0.815
same,glycan array binding signal (z-score),Glc(b1-4)Glc,0.692
same,glycan array binding signal (z-score),Glc(b1-6)Glc,-0.132
same,glycan array binding signal (z-score),GlcA(b1-3)Gal,0.326
same,glycan array binding signal (z-score),GlcA(b1-3)GlcNAc,-0.721
same,glycan array binding signal (z-score),GlcA(b1-6)Gal,-0.442
same,glycan array binding signal (z-score),[12],-0.254
same,glycan array binding signal (z-score),[13],-1.04
same,glycan array binding signal (z-score),[14],0.276

# Rewritten bar-delimited: part of the list above.
binder | measurement | setting | value
B1 | glycan array binding signal (z-score) | Gal6S(b1-4)GlcNAc | -0.571
same | glycan array binding signal (z-score) | Glc(b1-6)Glc | -0.132
same | glycan array binding signal (z-score) | [12] | -0.254
